Values joined by “and” are separate entries in the source; they are usually repeats but may differ in a detail not shown here. Identical values can stand only once. In all, about 410,000 compounds went through this assay and about 18,000 (4.4%) were called active. The inconclusive results got no clear call from the source; some entries with a clear call stand among them for comparison. Cut-off read from the data, not from the text of the source: active = activity change below about -60%; inconclusive = no clear call, values can overlap the other calls; inactive = above about -39%.
Experiment: qHTS Assay for inhibitors of the human cytomegalovirus (HCMV)
Settings: HFF cells, HCMV-luciferase reporter, 72 h; at 57.5 µM; stronger effect = lower value
In short: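 Two-dose cell screen: HFF monolayers treated with compounds and infected with luciferase-expressing HCMV at 1 PFU/cell, 72 h at 37C, then lysed for luciferase measurement.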
% is set by controls: 0 for no effect and ±100 for the full control effect.

Structure (SMILES)	activity change, negative = inhibition
COc1ccc(Cl)cc1NC(=O)Cn1nc(Cc2ccncc2)c2ccccc2c1=O	inconclusive: -53.9%
COc1ccc(-c2nc(C#N)c(N3CCC(C)CC3)o2)cc1	inconclusive: -41.4%
COc1ccccc1/C=C/C(C)=O	inconclusive: -41.1%
COc1ccc(-c2nc(CS(=O)CC(=O)NC3CCCCC3)c(C)o2)cc1 (stereo not given)	inconclusive: -40.1%
CSc1ccccc1NC(=O)C1(C)CCN1C(=O)Cc1ccc(-c2ccccc2)cc1 (stereo not given)	active: -62.1%
COCC(=O)N(CCc1ccc(OC)c(OC)c1)Cc1cc2cc(C)ccc2nc1Cl	inconclusive: -45.6%
Cc1ccsc1CN(C)CC(=O)Nc1cccc(S(=O)(=O)N(C)c2ccccc2)c1	inconclusive: -41.7%
Cc1cccc(N2CCN(C(C)C(=O)N3CCc4ccccc43)CC2)c1C (stereo not given)	inconclusive: -40.1%
O=C(Nc1ccc(F)cc1F)C1CCN(C(=O)c2ccc(Br)cc2)CC1	inconclusive: -51.7%
COC(=O)C(NC(=O)CNS(=O)(=O)c1ccc(Br)cc1)c1ccccc1 (stereo not given)	inactive: -1.07%
COc1ccccc1OCCCOc1c(Cl)cc(C)cc1Cl	inconclusive: -46.3%
CCOc1ccc(NC(=O)c2ccc(N3CC4CC(C3)c3cccc(=O)n3C4)c(NC(=O)c3ccncc3)c2)cc1 (stereo not given)	inconclusive: -40.7%
CCCc1nc2ccccc2n1Cc1ccccc1OC	inconclusive: -45.7%
Cc1cccc(-n2c(SCC(=O)NCc3ccc4c(c3)OCO4)nc3ccccc3c2=O)c1	inconclusive: -46.9%
C=C[C@]1(C)C[C@@H](OC(=O)CSCCN(CC)CC)[C@]2(C)C(C)CC[C@]3(CCC(=O)[C@H]32)[C@@H](C)[C@@H]1O (stereo not given in full)	inactive: -33% and inactive: 114%
COc1cccc(NC(=S)NCCCN2CCOCC2)c1	inconclusive: -58.4%
CCOC(=O)N1CCN=C1SCc1ccc(Cl)c(Cl)c1	inconclusive: -44%
O=C1CN(C(=O)COC(=O)[C@@H]2CCCN2S(=O)(=O)c2ccc(Cl)cc2)c2ccccc2N1	inactive: -8.08%
O=[N+]([O-])c1cccnc1S(=O)(=O)c1ccccc1	active: -99.4%
CC(=O)Nc1cccc(/C(C)=N/NC(=O)c2ccc(Cl)cc2Cl)c1	inconclusive: -44.8%
COc1ccc(CNC(=O)C2CCCN2C)cc1OC (stereo not given)	inconclusive: -42.3%
Cc1ccc2cc(S(=O)(=O)NCCCN3CCOCC3)ccc2c1	inconclusive: -45.5%
Cc1ccc(Nc2nc(=O)c3cccnc3s2)c(Br)c1	inconclusive: -55.2%
O=S(=O)(Nc1ncccc1O)c1ccc(Cl)cc1	inconclusive: -40.5%
Cc1cc(NC(=O)C2CCN(C(=O)c3ccco3)CC2)ccc1Br	inconclusive: -40%
CNc1oc(-c2ccc(F)cc2)nc1S(=O)(=O)c1ccccc1	inconclusive: -40.1%
Cc1ccc2c(c1)-c1[nH]c(=S)ncc1CS2	inactive: 6.5%
O=C(N/N=C/c1sc2ccccc2c1O)c1cccc2ccccc12	active: -104%

Structure (SMILES)	activity change, negative = inhibition
COc1ccc(OC)c(C2C(C(=O)N3CCCCC3)=C(C)Nc3nc4ccccc4n32)c1 (stereo not given)	inactive: 7.12%
CCN(CC)CCCNC(=O)CSc1nc(-c2cccs2)cc(C(F)(F)F)n1	inconclusive: -41.5%
Cc1cccc(OCC(O)Cn2c(=N)n(CCN3CCCCC3)c3ccccc32)c1 (stereo not given)	active: -62.1% and inconclusive: -57.3%
O=C(CSc1n[nH]c(-c2ccccc2)n1)Nc1ncccn1	inconclusive: -40.5%
CN(C)S(=O)(=O)c1ccc(Cl)c(NC(=O)CN2CCN(Cc3ccc4c(c3)OCO4)CC2)c1	active: -60.4%
CCCc1noc(-c2cccc([N+](=O)[O-])c2)n1	inconclusive: -59%
COc1ccc(/C=N/NC(=O)c2[nH]c3ccc(Br)cc3c2-c2ccccc2)c(C(=O)O)c1OC	active: -62.9%
COc1ccc(C2CC2/C(C)=N/OC(=O)c2ccc(F)cc2)cc1 (stereo not given)	inactive: -39.5%
N/C(Cn1cncn1)=N\NC(=O)c1ccc(Cl)cc1Cl	inconclusive: -53%
COc1ccc(C(=O)c2c(N)sc3c2CCN(C(=O)OC(C)(C)C)C3)cc1	active: -83.8%
COc1ccc(F)cc1C(=O)C1CCCN(C(=O)c2cccc(N(C)C)c2)C1 (stereo not given)	inconclusive: -45.5%
CNc1ccc2ncc(-c3ccc(OC)c(OC)c3)n2n1	active: -83.4%
CCNC(=O)C1CCN(c2nnc(C)c3c(C)n(-c4ccc(OC)cc4)nc23)CC1	inactive: 1.09%
O=C(Nc1ccc(Cl)cc1)C1Cc2c(-c3ccc(Cl)cc3)ccnc2O1 (stereo not given)	inconclusive: -46.9%
CC(=O)NS(=O)(=O)c1ccc(NC(=O)/C=C/c2ccco2)cc1	inconclusive: -44.8%
CCOC(=O)Nc1ccc2c(CN(C)Cc3ccc(F)cc3)cc(=O)oc2c1	active: -91.8%
COc1ccc(S(=O)(=O)N2CCCCCC2)cc1NC(=O)Cc1n[nH]c(=O)c2ccccc12	inconclusive: -42.1%
O=C(NC12CC3CC(CC(C3)C1)C2)N(Cc1ccccc1)Cc1ccncc1	inactive: 19.8%
Cc1ccc(CN(C)S(=O)(=O)c2c(C)noc2/C=C/N(C)C)cc1	inconclusive: -51.9%
CCOc1ccc(CCNC(=O)c2nnn(CC(=O)Nc3ccc(OC)c(OC)c3)c2N)cc1OCC	inconclusive: -42%
CC(C)Oc1ccccc1C1Nc2ccccc2C(=O)N1c1ccc2c(c1)OCCO2 (stereo not given)	inactive: 1.46%
O=C1O[C@@H](c2ccccc2)C[C@@H](O)C(=O)CCCc2ccccc21	inactive: -1.8%
COc1cc2c(cc1OC)C(NNC(=O)c1ccc(Br)o1)=NC(C)(C)C2	inconclusive: -43.1%
CCCCN(C)S(=O)(=O)c1cc2c3c(c1)CCC(=O)N3CCC2	inconclusive: -43.5%
Cc1c(-c2nc(-c3ccccc3F)no2)nnn1-c1cc(F)ccc1F	inconclusive: -58.6%
CC(=O)ON=C1C=CC(=C(C#N)c2ccccc2)C=C1	active: -101%
Cc1nc([N+](=O)[O-])cn1CC(O)c1ccc(F)cc1 (stereo not given)	inconclusive: -44.6%

Reference: PubChem BioAssay AID1259415 (National Center for Advancing Translational Sciences (NCATS), 2018)
